Binding data for 1 substance are collected here from paper PMC8987051.

Amino acid sequences for entries named in this document (tags omitted). Residues count along the entry.
UniProt P05121, residues 24-402: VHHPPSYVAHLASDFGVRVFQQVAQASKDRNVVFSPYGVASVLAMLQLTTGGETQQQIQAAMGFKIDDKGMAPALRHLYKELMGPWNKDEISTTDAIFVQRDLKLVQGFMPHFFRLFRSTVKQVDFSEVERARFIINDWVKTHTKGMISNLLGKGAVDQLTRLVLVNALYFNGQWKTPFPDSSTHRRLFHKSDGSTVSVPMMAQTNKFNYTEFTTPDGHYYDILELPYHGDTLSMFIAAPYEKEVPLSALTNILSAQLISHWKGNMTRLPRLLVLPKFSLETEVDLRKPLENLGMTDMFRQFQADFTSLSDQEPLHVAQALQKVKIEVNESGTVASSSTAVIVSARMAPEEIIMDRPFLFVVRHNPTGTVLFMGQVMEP
UniProt P45974: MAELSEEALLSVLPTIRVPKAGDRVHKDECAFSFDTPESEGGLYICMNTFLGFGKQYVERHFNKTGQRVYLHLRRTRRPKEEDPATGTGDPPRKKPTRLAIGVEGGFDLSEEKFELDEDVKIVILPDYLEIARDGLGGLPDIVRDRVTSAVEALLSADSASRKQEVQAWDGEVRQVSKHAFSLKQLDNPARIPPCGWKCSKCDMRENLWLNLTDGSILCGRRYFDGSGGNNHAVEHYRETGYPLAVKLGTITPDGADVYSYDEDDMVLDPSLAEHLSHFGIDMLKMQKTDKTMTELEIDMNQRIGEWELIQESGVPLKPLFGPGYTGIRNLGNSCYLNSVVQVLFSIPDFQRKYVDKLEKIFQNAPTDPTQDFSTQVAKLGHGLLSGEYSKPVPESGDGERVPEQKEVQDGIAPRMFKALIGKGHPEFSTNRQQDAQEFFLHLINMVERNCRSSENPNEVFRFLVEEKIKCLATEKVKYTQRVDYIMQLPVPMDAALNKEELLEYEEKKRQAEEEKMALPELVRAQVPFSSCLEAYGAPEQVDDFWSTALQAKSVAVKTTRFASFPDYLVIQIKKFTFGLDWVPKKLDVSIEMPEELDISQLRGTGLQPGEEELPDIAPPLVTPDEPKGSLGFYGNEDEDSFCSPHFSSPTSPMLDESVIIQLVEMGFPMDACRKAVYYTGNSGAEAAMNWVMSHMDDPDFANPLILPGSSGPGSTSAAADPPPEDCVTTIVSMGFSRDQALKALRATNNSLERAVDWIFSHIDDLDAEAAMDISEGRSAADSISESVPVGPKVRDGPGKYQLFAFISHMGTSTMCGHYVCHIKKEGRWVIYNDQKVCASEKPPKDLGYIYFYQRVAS

The experiment deals with Plasminogen Activator Inhibitor-1 (PAI1) (human (endogenous in LUAD cell lines)) (UniProt P05121). As to the kind of experiment: co-IP; total protein from cells incubated with anti-PAI1 antibody or control anti-IgG overnight at 4 °C, then Protein A/G overnight at 4 °C; washed with PBS; SDS-PAGE; cell line not stated.

No constants are given. Whether binding was seen depends on the method and setting. Binding seen in cells or lysates may run through a third protein. Some binding calls cover weakened binding; strength is not graded here.

Take “ubiquitin specific peptidase 5 (USP5) (from UniProt P45974 1-858) (enzyme)”: the binding result is reported as “binds”.
